# Values quoted from earlier work, collected in PMC3485633 (BMC Pharmacology, 2012).
# Target: D2 receptor
# Details: read-out: Ki D2 receptor; cited from earlier work
smiles,measurement,value
OCCOCCN1CCN(C2=Nc3ccccc3Sc3ccccc32)CC1 [quetiapine],Ki,680 nM
